One data set deals with STAT-1 + c-Jun. The data set can be described thus: EMSA supershift. Particulars: HDLC, 5 ug nuclear extract, 20 mM HEPES pH 7.8, 1 mM MgCl2, 0.5 mM DTT, 40-80 mM KCl, 5% glycerol, 20 min, RT, protein in an extract, label: 32P (dCTP fill-in). (Mobility shift assays separate free from complexed probe on a gel.)
Data set [1] has as its target STAT-1 (Homo sapiens (SW480/HepG2 nuclear extract)) (UniProt P42224). Put plainly: EMSA. Particulars: 5 ug nuclear extract, 20 mM HEPES pH 7.8, 1 mM MgCl2, 0.5 mM DTT, 40-80 mM KCl, 5% glycerol, 20 min, RT, protein in an extract, label: 32P (dCTP fill-in).
Data set [2] has as its target STAT-3 (Homo sapiens (SW480/HepG2 nuclear extract)) (UniProt P40763). Put plainly: EMSA. Particulars: IL-6 treated extract, STAT-3 homodimer; 5 ug nuclear extract, 20 mM HEPES pH 7.8, 1 mM MgCl2, 0.5 mM DTT, 40-80 mM KCl, 5% glycerol, 20 min, RT; protein in an extract; label: 32P (dCTP fill-in).
Another data set concerns STAT-1 + STAT-3. The data set can be described thus: EMSA. Particulars: IL-6 treated extract, STAT-1/STAT-3 heterodimer; 5 ug nuclear extract, 20 mM HEPES pH 7.8, 1 mM MgCl2, 0.5 mM DTT, 40-80 mM KCl, 5% glycerol, 20 min, RT; protein in an extract; label: 32P (dCTP fill-in).
Data set [3] relates to STAT-1 + Fos family (pan-Fos antibody). Put plainly: EMSA supershift. The settings on record: HDLC, blocked by anti-STAT-1, supershifted by anti-pan-Fos, PMA enhances, IFN-gamma reduces; 5 ug nuclear extract, 20 mM HEPES pH 7.8, 1 mM MgCl2, 0.5 mM DTT, 40-80 mM KCl, 5% glycerol, 20 min, RT; protein in an extract; label: 32P (dCTP fill-in).
In data set [4] the target is STAT-1 (Homo sapiens (SW480/HepG2 nuclear extract)) (UniProt P42224). The data set can be described thus: EMSA supershift. Particulars: HDLC, blocked by anti-STAT-1, IFN-gamma reduces; 5 ug nuclear extract, 20 mM HEPES pH 7.8, 1 mM MgCl2, 0.5 mM DTT, 40-80 mM KCl, 5% glycerol, 20 min, RT; protein in an extract; label: 32P (dCTP fill-in).
Where [5] appears, read: HDLC, HepG2 extract, with 1 ug poly dI:dC (no AP-1 site).

Amino acid sequences for entries named in this document (tags omitted). A change or cut given only in a name is not applied to a line headed by its entry.
UniProt P42224: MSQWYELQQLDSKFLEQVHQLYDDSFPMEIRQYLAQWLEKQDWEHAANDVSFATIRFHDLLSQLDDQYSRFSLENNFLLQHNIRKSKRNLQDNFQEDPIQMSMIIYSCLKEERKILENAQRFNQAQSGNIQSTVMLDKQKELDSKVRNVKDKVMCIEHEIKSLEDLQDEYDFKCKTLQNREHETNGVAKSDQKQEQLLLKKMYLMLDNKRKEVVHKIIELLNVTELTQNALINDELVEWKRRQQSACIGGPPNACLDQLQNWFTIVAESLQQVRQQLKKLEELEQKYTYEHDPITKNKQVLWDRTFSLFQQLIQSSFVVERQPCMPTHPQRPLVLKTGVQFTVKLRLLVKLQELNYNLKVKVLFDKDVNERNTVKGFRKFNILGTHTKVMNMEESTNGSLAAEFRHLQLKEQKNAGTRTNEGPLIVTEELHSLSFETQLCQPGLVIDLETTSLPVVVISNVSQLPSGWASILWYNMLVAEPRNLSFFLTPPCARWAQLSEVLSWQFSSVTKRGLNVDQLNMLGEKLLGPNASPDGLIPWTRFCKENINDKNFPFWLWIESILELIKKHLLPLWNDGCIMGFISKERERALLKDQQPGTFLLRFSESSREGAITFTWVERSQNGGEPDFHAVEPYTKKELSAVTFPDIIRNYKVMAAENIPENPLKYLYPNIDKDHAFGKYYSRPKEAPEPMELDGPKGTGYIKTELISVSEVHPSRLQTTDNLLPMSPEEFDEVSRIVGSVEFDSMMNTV
UniProt P40763, whole entry: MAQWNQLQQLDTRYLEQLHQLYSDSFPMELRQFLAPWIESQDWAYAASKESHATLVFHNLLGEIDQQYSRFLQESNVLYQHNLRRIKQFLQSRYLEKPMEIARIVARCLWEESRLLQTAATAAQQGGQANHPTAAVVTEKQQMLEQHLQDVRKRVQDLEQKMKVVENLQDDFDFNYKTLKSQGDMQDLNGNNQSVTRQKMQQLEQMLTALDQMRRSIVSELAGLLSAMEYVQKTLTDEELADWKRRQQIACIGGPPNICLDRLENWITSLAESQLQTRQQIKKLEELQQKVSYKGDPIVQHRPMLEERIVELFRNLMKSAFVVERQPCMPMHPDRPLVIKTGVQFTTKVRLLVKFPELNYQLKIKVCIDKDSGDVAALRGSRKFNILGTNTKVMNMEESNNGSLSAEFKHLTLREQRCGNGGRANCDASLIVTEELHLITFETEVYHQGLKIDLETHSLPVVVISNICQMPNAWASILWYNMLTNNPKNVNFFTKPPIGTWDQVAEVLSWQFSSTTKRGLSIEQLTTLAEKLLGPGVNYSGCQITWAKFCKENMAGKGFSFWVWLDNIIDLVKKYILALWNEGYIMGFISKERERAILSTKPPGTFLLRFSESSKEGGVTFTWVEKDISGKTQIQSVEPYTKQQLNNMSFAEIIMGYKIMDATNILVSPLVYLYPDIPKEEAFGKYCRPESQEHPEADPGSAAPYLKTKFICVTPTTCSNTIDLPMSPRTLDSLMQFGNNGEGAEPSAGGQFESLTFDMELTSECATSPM

Construct, isoform or probe ends are uncertain for at least one entry. Where cells or extracts were used, other partners may take part. For some of these results: No signal at the amounts used counts as a negative. For some of these results: At least one verdict rests on a figure or table, not on a statement of the authors.

Consider “GATGAGTCAGACAGCCTCTGGCTTTCTGGAAGGG / GATCCCCTTCCAGAAAGCCAGAGGCTGTCTGACTCATCGTAC [MMP-1 SBE/AP-1]”, for which, in the data set with STAT-1 + c-Jun (constitutive and with IL-6, anti-c-Jun reduces binding), the binding result is “binds”.

Regarding “GATCATCCTACTTTGAATTTGGAATGTTTGGAAATGGTC / AGCTGACCATTTCCAAACATTCCAAATTCAAAGTAGGAT [MMP-3 SBE II/III]”, in the data set with STAT-1 + c-Jun (anti-c-Jun reduces binding, IL-6 increases), the binding result is recorded as “binds”.

Take “TCGACTGCCATTTGGATGAAAGCAAG / TCGACTTGCTTTCATCCAAATGGCAG [MMP-3 SBE I]”: the binding result in data set [1] (HDLC, HepG2 extract, SBE I without AP-1) is reported as “binds”; in data set [1] (setting [5]), “no binding”.

On to “TCGAGACACCTCTGGCTTTCTGGAAGGG / TCGACCCTTCCAGAAAGCCAGAGGTGTC [MMP-1 SBE]”, for which the binding result in data set [1] (setting [5]) is given as “no binding”.

Turning to “TCGACGTCATTTCCCGTAAATCCCG / TCGACGGGATTTACGGGAAATGACG [SIE (c-fos, m67)]”, the binding result in data set [2] was “binds”; in data set [1] (IFN-gamma or IL-6 treated extract, STAT-1 homodimer), “binds”; in the data set with STAT-1 + STAT-3, “binds”.

On to “TCGACTGCCATTTGGATGAAAGCAAGGATGAGTCAAGC / TCGAGCTTGACTCATCCTTGCTTTCATCCAAATGGCAG [MMP-3 SBE I/AP-1]”, for which the binding result in data set [3] is on record as “binds”.

As to “CCGGTACCAAGACAGGAAGCACTTCCTGGAGATTAATC / CAGTGATTAATCTCCAGGAAGTGCTTCCTGTCTTGGTA [MMP-3 SBE IV]”, in data set [4], the binding result is “binds”.

The record behind these values is publication PMC5561029.
